Taken from: PubChem BioAssay AID1259308 (NCATS, 2017)
Purpose: 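Knock-downs that increase output of a recombinant reporter protein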 (primary screen). Cells: human HEK293 embryonic kidney cells stably expressing firefly luciferase (HEK-CMV-Luc2-Hygro). Reagents: single siRNA against human genes, 0.8 pmol siRNA per well. Timing: 72 h. Measured: 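Luciferase light (ONE-Glo) measured on one replicate plate set and viability (CellTiter-Glo) on the other, scaled to a negative control siRNA, with robust z-scores and luciferase per cell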. Direction: total luciferase, z-score and total luciferase, % of control: higher = more reporter protein produced; luciferase per cell, z-score: higher = more reporter output per viable cell; viable cells, % of control: higher = more viable cells. Hit rule: 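An siRNA counts as active if its total luciferase robust z-score exceeds 3; genes with two or more such siRNAs out of three were retested with fresh siRNAs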. Meaning of the calls: active = raised luciferase; inactive = no rise.
Shown is an unselected part of about 59,000 deposited reagents. About 1,510 of all reagents (2.6%) were called active. 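Calls use total luciferase alone and ignore viability, so some active siRNAs may act by altering cell number.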 Unmarked entries are inactive. Reagents against one gene are numbered here.

| total luciferase, z-score | total luciferase, % of control | luciferase per cell, z-score | viable cells, % of control | gene | reagent |
| --- | --- | --- | --- | --- | --- |
| 0.138 | 84.6 | -0.404 | 105 | CACNA1A (calcium voltage-gated channel subunit alpha1 A) | 1 |
| 3.03 (active) | 142 | 2.73 | 77.4 | CACNA1A (calcium voltage-gated channel subunit alpha1 A) | 2 |
| -0.921 | 63.6 | -0.97 | 91.7 | CACNA1A (calcium voltage-gated channel subunit alpha1 A) | 3 |
| -0.72 | 67.6 | -0.21 | 79.8 | RIMOC1 (RAB7A interacting MON1-CCZ1 complex subunit 1) | 1 |
| -0.753 | 66.9 | -0.0333 | 75.4 | RIMOC1 (RAB7A interacting MON1-CCZ1 complex subunit 1) | 2 |
| -0.0979 | 79.9 | -0.426 | 99.9 | RIMOC1 (RAB7A interacting MON1-CCZ1 complex subunit 1) | 3 |
| 0.684 | 95.5 | -0.0269 | 107 | SLC25A12 | 1 |
| -0.322 | 75.5 | -0.73 | 102 | SLC25A12 | 2 |
| 0.698 | 95.8 | 0.204 | 101 | SLC25A12 | 3 |
| 1.51 | 112 | 2.6 | 63.1 | BOLA2 (bolA family member 2) | 1 |
| -1.26 | 56.8 | -0.971 | 81.9 | BOLA2 (bolA family member 2) | 2 |
| 0.526 | 92.3 | -0.127 | 107 | BOLA2 (bolA family member 2) | 3 |
| 1.43 | 110 | 1.59 | 81.1 | TMCO4 (transmembrane and coiled-coil domains 4) | 1 |
| -0.0576 | 80.7 | -0.474 | 102 | TMCO4 (transmembrane and coiled-coil domains 4) | 2 |
| -1.18 | 58.4 | -1.7 | 102 | TMCO4 (transmembrane and coiled-coil domains 4) | 3 |
| 0.00888 | 82.1 | -0.456 | 103 | OSTC (oligosaccharyltransferase complex non-catalytic subunit) | 1 |
| 0.819 | 98.2 | 0.313 | 101 | OSTC (oligosaccharyltransferase complex non-catalytic subunit) | 2 |
| 0.123 | 84.3 | 0.406 | 84.7 | OSTC (oligosaccharyltransferase complex non-catalytic subunit) | 3 |
| -0.247 | 77 | 0.608 | 73.3 | RAB23 (RAB23, member RAS oncogene family) | 1 |
| -1.2 | 58.1 | -0.796 | 80 | RAB23 (RAB23, member RAS oncogene family) | 2 |
| 0.908 | 99.9 | 0.77 | 91.2 | RAB23 (RAB23, member RAS oncogene family) | 3 |
| 0.518 | 92.2 | -0.475 | 117 | BACH1 (BTB domain and CNC homolog 1) | 1 |
| -0.702 | 67.9 | -0.69 | 91 | BACH1 (BTB domain and CNC homolog 1) | 2 |
| -0.171 | 78.5 | -0.55 | 101 | BACH1 (BTB domain and CNC homolog 1) | 3 |
| 1.4 | 110 | 0.486 | 108 | HHIPL1 (HHIP like 1) | 1 |
| 2.78 | 137 | 1.53 | 102 | HHIPL1 (HHIP like 1) | 2 |
| -0.799 | 66 | 0.267 | 68.7 | HHIPL1 (HHIP like 1) | 3 |
| -0.965 | 62.7 | -1.45 | 103 | TUBBP2 (tubulin beta pseudogene 2) | 1 |
| -0.241 | 77.1 | 0.505 | 75.4 | TUBBP2 (tubulin beta pseudogene 2) | 2 |
| 0.0987 | 83.9 | 0.912 | 73.7 | TUBBP2 (tubulin beta pseudogene 2) | 3 |
| -0.457 | 72.8 | -0.399 | 90.4 | ANGPTL6 (angiopoietin like 6) | 1 |
| 0.858 | 98.9 | 0.359 | 101 | ANGPTL6 (angiopoietin like 6) | 2 |
| -1.59 | 50.3 | -0.85 | 70.4 | ANGPTL6 (angiopoietin like 6) | 3 |

Copied from the list:
Result for ANGPTL6 (angiopoietin like 6) #1 under “total luciferase, % of control”: 72.8
Result of CACNA1A (calcium voltage-gated channel subunit alpha1 A) #1 in “viable cells, % of control”: 105
Value of SLC25A12 #3 in “total luciferase, % of control”: 95.8
Under “total luciferase, % of control”, HHIPL1 (HHIP like 1) #2 shows 137
OSTC (oligosaccharyltransferase complex non-catalytic subunit) #2, total luciferase, % of control = 98.2
SLC25A12 #1, total luciferase, % of control = 95.5

The listing continues:
| total luciferase, z-score | total luciferase, % of control | luciferase per cell, z-score | viable cells, % of control | gene | reagent |
| --- | --- | --- | --- | --- | --- |
| -0.625 | 69.5 | -0.177 | 81.3 | ALG1L1P (ALG1 like 1, pseudogene) | 1 |
| 2.09 | 123 | 2.37 | 73.9 | ALG1L1P (ALG1 like 1, pseudogene) | 2 |
| 0.0374 | 82.6 | 0.168 | 88.3 | ALG1L1P (ALG1 like 1, pseudogene) | 3 |
| 1.78 | 117 | 1.69 | 84.1 | PCDHA8 (protocadherin alpha 8) | 1 |
| 0.0755 | 83.4 | 0.513 | 81.4 | PCDHA8 (protocadherin alpha 8) | 2 |
| -0.393 | 74.1 | -1.36 | 118 | PCDHA8 (protocadherin alpha 8) | 3 |
| -0.145 | 79 | -0.128 | 91.3 | VPS33A (VPS33A core subunit of CORVET and HOPS complexes) | 1 |
| 0.189 | 85.7 | -0.242 | 102 | VPS33A (VPS33A core subunit of CORVET and HOPS complexes) | 2 |
| 0.054 | 83 | -0.616 | 109 | VPS33A (VPS33A core subunit of CORVET and HOPS complexes) | 3 |
| -0.589 | 70.2 | -0.974 | 101 | GSC (goosecoid homeobox) | 1 |
| 0.201 | 85.9 | 0.103 | 93.4 | GSC (goosecoid homeobox) | 2 |
| -0.24 | 77.1 | -0.594 | 101 | GSC (goosecoid homeobox) | 3 |
| 0.51 | 92 | 0.241 | 96.5 | KY (kyphoscoliosis peptidase) | 1 |
| -0.838 | 65.2 | -1.18 | 99.5 | KY (kyphoscoliosis peptidase) | 2 |
| 1.03 | 102 | -0.0409 | 116 | KY (kyphoscoliosis peptidase) | 3 |
| -1.42 | 53.6 | -1.26 | 83.4 | LINC00607 (long independently transcribed non-coding RNA 607) | 1 |
| -1.24 | 57.3 | -1.43 | 93.5 | LINC00607 (long independently transcribed non-coding RNA 607) | 2 |
| 0.098 | 83.8 | -0.23 | 99.5 | LINC00607 (long independently transcribed non-coding RNA 607) | 3 |
| 1.61 | 114 | 1.29 | 90.5 | MPHOSPH8 (M-phase phosphoprotein 8) | 1 |
| 1.5 | 112 | 1.73 | 79.2 | MPHOSPH8 (M-phase phosphoprotein 8) | 2 |
| 1.68 | 115 | 0.518 | 112 | MPHOSPH8 (M-phase phosphoprotein 8) | 3 |
| 0.794 | 97.7 | 0.863 | 87 | TNP2 (transition protein 2) | 1 |
| -1.33 | 55.4 | -0.448 | 69.6 | TNP2 (transition protein 2) | 2 |
| 3.45 (active) | 151 | 2.67 | 83.2 | TNP2 (transition protein 2) | 3 |
